# Among all 240,000 compounds or so, about 1,300 (0.54%) were called active. The shares of active, inactive and inconclusive entries below differ from those in the screen. Calls come from the whole dose curve; as a rule, active = well fitted inhibition curve with a large enough effect; inconclusive = small, poorly fitted or top-dose-only effect; inactive = flat fitted curve, though single readings scatter. Potencies beside an inconclusive call are fits to weak or partial responses and may not hold up. Some structures have more than one record in an assay (separate samples or runs), and their calls can disagree.
# Chains of the proteins cited; added tags and fusions are not shown. Lines headed by an entry give the natural chain unless they say otherwise; changes in a name come on top.
# UniProt P46063: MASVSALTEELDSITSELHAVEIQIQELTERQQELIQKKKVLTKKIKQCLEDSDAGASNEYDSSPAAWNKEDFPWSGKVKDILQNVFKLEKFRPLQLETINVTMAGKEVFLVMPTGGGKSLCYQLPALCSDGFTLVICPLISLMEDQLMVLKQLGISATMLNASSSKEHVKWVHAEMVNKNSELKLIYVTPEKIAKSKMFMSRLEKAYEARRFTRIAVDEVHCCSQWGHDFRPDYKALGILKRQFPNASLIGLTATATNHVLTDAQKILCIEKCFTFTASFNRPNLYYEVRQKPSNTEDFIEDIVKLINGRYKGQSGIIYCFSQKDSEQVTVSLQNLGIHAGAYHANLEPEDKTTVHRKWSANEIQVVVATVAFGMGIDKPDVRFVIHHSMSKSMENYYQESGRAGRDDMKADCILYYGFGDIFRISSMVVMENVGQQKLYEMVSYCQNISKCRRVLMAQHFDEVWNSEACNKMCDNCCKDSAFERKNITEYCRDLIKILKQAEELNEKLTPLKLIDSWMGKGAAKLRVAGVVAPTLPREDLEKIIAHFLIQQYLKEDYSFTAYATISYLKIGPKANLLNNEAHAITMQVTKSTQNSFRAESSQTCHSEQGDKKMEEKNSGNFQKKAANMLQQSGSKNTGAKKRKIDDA
# Target: ATP-dependent DNA helicase Q1 (Homo sapiens) (UniProt P46063)
# Assay: qHTS Assay for Inhibitors of RecQ-Like Dna Helicase 1 (RECQ1); note: nearly all actives have a fitted effect of over 30% in size
# Settings: RECQ1 DNA unwinding, red fluorescence kinetic read; series mostly up to 57.3 µM
# Text: Survival of cells and the faithful propagation of the genome depend on elaborate mechanisms of detecting and repairing DNA damage. Treatment of advanced cancer relies on radiation therapy or chemotherapy, which kill cancer cells by causing extensive DNA damage. It is often found, that cancer cells develop resistance to therapy through enhanced activity of DNA repair functions; this has led to an increased interest in developing drugs that interfere with DNA repair, which could sensitize cancer cells to conventional therapy.
# This validation qHTS assay pertains to human RECQ1, which is important in resolving abnormal DNA structures formed during replication or homologous recombination. Shutting down the expression of RECQ1 leads to chromosomal instability and higher radiation sensitivity in cultured cells.
# The validation assay was a fluorescence quenching based kinetic qHTS for RECQ1 Helicase DNA unwinding. The activity was measured as ATP-dependent separation of a 20-bp DNA duplex extended by 30-nt single-stranded tails (forked duplex). The forked DNA substrate was tagged with rhodamine fluorophore (carboxytetramethyl rhodamine, TAMRA) and BHQ-2 (Black Hole Quencher 2) dark quencher. Strand separation results in an increase in the fluorescence of TAMRA (excitation 525 nm, emission 598 nm). This substrate construct operates in a red-shifted region where very few compound library members have been noted to fluoresce (PubChem AIDs 593 and 594). An additional feature of the assay is the inclusion of 2.5 ug/ml poly (dIdC), to reduce interference by compounds such as DNA intercalators, a major source of false inhibitors.
# Opher Gileadi, Structural Genomics Consortium, University of Oxford
# Screening Center PI: Austin, C.P.
# Screening Center: NIH Chemical Genomics Center [NCGC]
# Three uL of reaction buffer (25 mM Tris-HCl (pH 8.0), 5 mM NaCl, 2 mM MgCl2, 1mM DTT, 0.01% Tween- 20, and 2.5 ug/ml poly(dI-dC), including enzyme (50 nM RECQ1T1), were dispensed into a 1536-well Greiner black assay plate via solenoid-valve based nanoliter dispensers. Compounds (23 nl each in columns 5-48) and control (23 nl each in column 2 as dose-response) were transferred via a Kalypsys pintool equipped with a 1536-pin array. The plates were incubated for 15 min at room temperature, and then 1 ul of substrates (200 nM DNA and 2 mM ATP, final concentrations) was added to start the reaction. The plate was transferred into a ViewLux high-throughput CCD imager where the reaction progress was measured in a discontinuous kinetic mode (two reads spaced 2 hours apart, with intermediate room temperature incubation of the covered assay plate) by using standard red-fluorescence optics (excitation filter 525 nm, emission filter 598 nm). Enzyme-free and vehicle (DMSO) controls were included for signal normalization.
# Potency is the fitted concentration of half-maximal effect.
row,Structure (SMILES),Potency
1,Cc1c(Cl)cnc(NC(=O)COC(=O)c2ccc3ncsc3c2)c1Cl,"inconclusive: 39.8 µM [inhibitor, single point]"
2,CCOc1ccc(/C=C/C2=Cc3c(sc(NC(=O)CSc4n[nH]c(N)n4)c3C#N)C(C)(C)C2)cc1,"inconclusive: 35.5 µM [inhibitor, single point]"
3,O=c1c2c(nc3c(-c4ccccc4)c[nH]n13)CCCC2,"inconclusive: 12.6 µM [inhibitor, partial curve]"
4,CC(=O)c1ccc(S(=O)(=O)Nc2ccc(-c3ccc4nnc(C)n4n3)cc2)cc1,"inconclusive: 35.5 µM [inhibitor, single point]"
5,O=C(N=C1SCC(=O)N1c1ccccc1Cl)c1ccco1,active: 17.8 µM
6,COc1ccccc1Cn1c(=S)[nH]c2cc(C(=O)NCC3CCCO3)ccc2c1=O (stereo unspecified),inactive
7,CC(C)C1N=C2c3ccccc3N=C(SCC(=O)c3ccc(O)c(O)c3)N2C1=O (stereo unspecified),active: 14.1 µM
8,O=C(c1ccc(Nc2nccc(-c3cc4ccccc4s3)n2)cc1)N1CCC(N2CCCC2)CC1,"inconclusive: 39.8 µM [inhibitor, single point]"
9,O=c1nc(/C=C/c2cccn2-c2ccc([N+](=O)[O-])cc2)cc(C(F)(F)F)[nH]1,active: 35.5 µM
10,CCOc1ccccc1CNc1ccc(O)cc1,active: 20 µM
11,COC1=C(C(=O)c2ccccc2)C(=O)C2(CC=C(C)C)C[C@H](C(=O)OCC(F)(F)F)C(C)(C)[C@@]1(CC=C(C)C)C2=O (tested in a mixture with another compound),inactive
12,O=C(/C=C/c1ccc(Cl)c([N+](=O)[O-])c1)c1ccc(O)cc1,"inconclusive: 14.1 µM [inhibitor, partial curve]"
13,C[C@@H]1C(=O)O[C@H]2[C@H]1CC[C@@]1(C)C(=O)C=C[C@@](C)(O)[C@H]21,"inconclusive: 0.178 µM [inhibitor, full curve]"
14,CCCCC1=CC2=CC(=O)C(C)(OC(=O)CC)C(=O)C2=CN1Cc1ccco1 (stereo unspecified),"inconclusive: 39.8 µM [inhibitor, single point]"
15,C[C@]12CC[C@@H]3c4ccc(O)cc4CC[C@H]3[C@@H]1CC[C@@H]2O,active: 31.6 µM
16,CC(OC(=O)Cc1coc2ccc3ccccc3c12)C(=O)Nc1ncc(Cl)cc1Cl (stereo unspecified),"inconclusive: 0.0251 µM [inhibitor, full curve, poor fit]"
17,CCOc1cccc(CNCCO)c1OCc1ccc(Cl)cc1Cl,inactive
18,Cc1ccc2nc(CSc3nnc(-c4ccco4)o3)cc(=O)n2c1,"inconclusive: 31.6 µM [inhibitor, single point]"
19,C#CCOCCOCCOCCNc1nc(N2CCN(C(=O)[C@H]([C@@H](C)O)n3cc(CCCCN)nn3)CC2)nc(N2CCN(C(=O)[C@H](Cc3ccc(O)cc3)n3cc(CCO)nn3)CC2)n1,inactive
20,CCc1c(O)cc(=O)n(-c2ccccc2)c1-c1ccccc1,"inconclusive: 31.6 µM [inhibitor, single point]"
21,COc1ccc(C2N(C(=O)c3ccccc3)CCN2C(=O)c2ccccc2)cc1,"inconclusive: 1.26 µM [inhibitor, full curve]"
22,COc1ccc(CNc2ccnc(-c3ccccc3Cl)n2)c(OC)c1,inactive

row,Structure (SMILES),Potency
1,CCOc1ccc(NC(=O)C(C)Oc2ccccc2C(=O)Nc2ccc(C)c(Cl)c2)cc1 (stereo unspecified),"inconclusive: 4.47 µM [inhibitor, partial curve, poor fit]"
2,CC1(C)CC(=O)C2=C(C1)NC(Nc1nc3ccccc3o1)=NC2c1ccccn1 (stereo unspecified),"inconclusive: 28.2 µM [inhibitor, partial curve]"
3,O=C(/C=C(\O)c1ccc(Cl)cc1)C(=O)NNC(=O)C(O)(c1ccccc1)c1ccccc1,"inconclusive: 39.8 µM [inhibitor, single point]"
4,O=C(c1cccs1)N(Cc1ccco1)Cc1cc2ccccc2[nH]c1=O,"inconclusive: 0.447 µM [inhibitor, partial curve, poor fit]"
5,O=C(O)c1cccc(-n2cccc2/C=C/[N+](=O)[O-])c1,"inconclusive: 25.1 µM [inhibitor, single point]"
6,O=C(O)c1cc(N/N=C/c2ccc(N3CCOCC3)s2)ccc1Cl,active: 14.1 µM
7,CCOC(=O)CSc1[nH]c2cc(OC)ccc2c1[N+](=O)[O-],inactive
8,COc1cc2c(ccc3cc(OC)c(OC)c(O)c32)cc1O,active: 11.2 µM
9,COc1cc(OC)cc(C(=O)NCc2ccc3c(c2)cc(C)n3C)c1,"inconclusive: 39.8 µM [inhibitor, single point]"
10,CC(C)(C)C1CCC(C(=O)OCC(=O)c2ccc[nH]2)CC1 (stereo unspecified),"inconclusive: 31.6 µM [inhibitor, single point]"
11,CCc1ccccc1NC(=O)Cc1ccc(-n2cccc2)cc1,"inconclusive: 12.6 µM [inhibitor, partial curve]"
12,O=c1cc2oc3cc(O)c(O)cc3c(-c3ccccc3O)c-2cc1O,active: 3.55 µM
13,O=[N+]([O-])c1ccc(O)c(C=Nc2ccc3c(c2)OCO3)c1,inactive
14,CN(C)c1ccc(C2Nc3ccccc3C(=O)N2NS(=O)(=O)c2ccccc2)cc1 (stereo unspecified),"inconclusive: 0.631 µM [inhibitor, full curve]"
15,Cc1ccc(-n2c(SCc3cn4ccsc4n3)nc3ccccc3c2=O)cc1,"inconclusive: 15.8 µM [inhibitor, single point]"
16,O=C1c2cccc3cccc(c23)C(=O)N1OS(=O)(=O)c1ccccc1,inactive
17,O=C(c1cccc(F)c1)N1CCN(c2cc(N3CCCCC3)c(F)cc2[N+](=O)[O-])CC1,"inconclusive: 3.55 µM [inhibitor, full curve]"
18,Cc1ccc(-n2cccc2C(=O)NS(=O)(=O)c2ccc(C)cc2)cc1,"inconclusive: 39.8 µM [inhibitor, single point]"
19,Cc1nccn1CC(=O)N/N=C/c1ccc(O)c(O)c1,"inconclusive: 39.8 µM [inhibitor, single point]"
20,CC(=O)C1=C(C)OC2(O)c3ccccc3C(=O)C12O (stereo unspecified),"inconclusive: 39.8 µM [inhibitor, single point]"
21,COc1ccc(Cn2c3nc4ccccc4nc3c3c(=O)n(Cc4ccco4)c(C)nc32)cc1,active: 3.55 µM
22,N#CCCSc1ccccc1NC(=O)c1ccc(S(=O)(=O)N2CCCC2)cc1,inactive

# Structures from the list above that contain an aryl thioether with sulfur outside any ring:
row,Structure (SMILES),Potency
2,CCOc1ccc(/C=C/C2=Cc3c(sc(NC(=O)CSc4n[nH]c(N)n4)c3C#N)C(C)(C)C2)cc1,"inconclusive: 35.5 µM [inhibitor, single point]"
18,Cc1ccc2nc(CSc3nnc(-c4ccco4)o3)cc(=O)n2c1,"inconclusive: 31.6 µM [inhibitor, single point]"
7,CCOC(=O)CSc1[nH]c2cc(OC)ccc2c1[N+](=O)[O-],inactive
15,Cc1ccc(-n2c(SCc3cn4ccsc4n3)nc3ccccc3c2=O)cc1,"inconclusive: 15.8 µM [inhibitor, single point]"
22,N#CCCSc1ccccc1NC(=O)c1ccc(S(=O)(=O)N2CCCC2)cc1,inactive

# (list continues)

row,Structure (SMILES),Potency
1,COc1ccc(/C=C2\C(=O)N(c3c(Cl)cc(Cl)cc3Cl)N=C2NC(=O)c2cccc([N+](=O)[O-])c2)cc1,"inconclusive: 1.41 µM [inhibitor, full curve]"
2,CCOC(=O)[C@@]12C[C@@H]1/C(=N/O)c1ccccc1O2,"inconclusive: 7.94 µM [inhibitor, full curve, poor fit]"
3,O=C(CCS(=O)(=O)c1ccc(Br)cc1)N1CCN(c2ccc(Cl)cc2)CC1,"inconclusive: 39.8 µM [inhibitor, single point]"
4,CCN1CCN(c2cc(C)c3cc(NC(=O)c4ccc(OC)c(OC)c4)ccc3n2)CC1,active: 22.4 µM
5,CNc1ccccc1C(C)(C)c1cc(-c2ccco2)n[nH]1,"inconclusive: 35.5 µM [inhibitor, single point]"
6,Cc1cc2cc(CCNC(=O)c3cccc([N+](=O)[O-])c3)c(=O)[nH]c2cc1C,"inconclusive: 0.501 µM [inhibitor, partial curve, poor fit]"
7,CN1C(=O)/C(=C/c2ccco2)SC1=Nc1cccc(C(=O)O)c1,"inconclusive: 35.5 µM [inhibitor, single point]"
8,Oc1ccc(-c2nc(-c3ccc(O)c(O)c3)cs2)cc1,"inconclusive: 14.1 µM [inhibitor, partial curve]"
9,Cc1ccccc1-c1nnc2s/c(=C\c3ccc(N(C)C)cc3)c(=O)n12,"inconclusive: 5.01 µM [inhibitor, partial curve, poor fit]"
10,COc1ccc(NC(=O)CSc2nnc(Cc3cccn3C)n2-c2ccc(OC)cc2)cc1,inactive
11,O=C(N/N=C/c1ccc([N+](=O)[O-])o1)c1cc(-c2ccncc2)nc2ccccc12,"inconclusive: 39.8 µM [inhibitor, partial curve]"
12,COc1ccc(-n2c(CNC(=O)c3ccc(S(=O)(=O)N4CCCC4)cc3)n[nH]c2=S)cc1,"inconclusive: 7.08 µM [inhibitor, single point]"
13,CN(Cc1ccco1)c1ccnc(-c2ccoc2)n1,inactive
14,Cc1ccc(NC(=O)c2ccc(CNS(=O)(=O)c3cccc(C(F)(F)F)c3)cc2)cc1,"inconclusive: 0.158 µM [inhibitor, full curve, poor fit]"
15,Cc1nc2ccc(C(=O)Nc3cccc([N+](=O)[O-])c3)cc2s1,"inconclusive: 8.91 µM [inhibitor, full curve, poor fit]"
16,CCn1cc(CNC(=O)c2cc(Cl)ccc2OC)c(C)n1,"inconclusive: 25.1 µM [inhibitor, single point]"
17,COc1cc(C(=O)NC2CC(C)(C)NC(C)(C)C2)cc(OC)c1OC,inactive
18,C=CCn1c(SCc2ccc3c(c2)OCO3)nc2scc(-c3ccco3)c2c1=O,"inconclusive: 39.8 µM [inhibitor, single point]"
19,Oc1cccc(/C=N/NC(=S)NCCN2CCOCC2)c1O,active: 12.6 µM
20,COc1ccc(C2CC(c3ccccc3)Oc3c(C)ccc(C(C)C)c32)cc1 (stereo unspecified),inactive
21,COc1cc2nc(N3CCNCC3)nc(N)c2cc1OC,inactive
22,O=C(NCc1ccco1)c1cccn2c(=O)c3cc4ccccc4cc3nc12,"inconclusive: 31.6 µM [inhibitor, single point]"
